Results from the supplement of paper PMC8728848.
This is one part of the list.

Legend:
Experiment in all cases: glycan array binding signal (z-score within array); higher = stronger binding
Conditions in all cases: glycan notation: IUPAC condensed, linker removed
[1] = molecular target: Gal(b1-4)GlcNAc(b1-3)Gal(b1-4)GlcNAc(b1-3)Gal(b1-4)GlcNAc(b1-2)Man(a1-3)[Gal(b1-4)GlcNAc(b1-3)Gal(b1-4)GlcNAc(b1-3)Gal(b1-4)GlcNAc(b1-2)Man(a1-6)]Man(b1-4)GlcNAc(b1-4)GlcNAc
Procedure, shortened: (§1)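 Glycan array data were curated from 3228 arrays in the Consortium for Functional Glycomics database and kept only where the protein sequence was available. Glycan names were converted to IUPAC-condensed notation, and columns mapping to the same glycan were averaged. The binding signal is a within-array Z-score, averaged across arrays of the same protein sequence at different concentrations or buffers and across linkers. Negative Z-scores can be read as non-binding.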

[2] = molecular target: Gal(b1-4)GlcNAc(b1-3)Gal(b1-4)GlcNAc(b1-3)Gal(b1-4)GlcNAc(b1-2)Man(a1-3)[Gal(b1-4)GlcNAc(b1-3)Gal(b1-4)GlcNAc(b1-3)Gal(b1-4)GlcNAc(b1-2)Man(a1-6)]Man(b1-4)GlcNAc(b1-4)[Fuc(a1-6)]GlcNAc
Procedure, shortened: as §1

[3] = molecular target: Gal(b1-4)GlcNAc(b1-3)Gal(b1-4)GlcNAc(b1-3)Gal(b1-4)GlcNAc(b1-2)[Gal(b1-4)GlcNAc(b1-3)Gal(b1-4)GlcNAc(b1-3)Gal(b1-4)GlcNAc(b1-6)]Man(a1-6)[Gal(b1-4)GlcNAc(b1-3)Gal(b1-4)GlcNAc(b1-3)Gal(b1-4)GlcNAc(b1-2)Man(a1-3)]Man(b1-4)GlcNAc(b1-4)[Fuc(a1-6)]GlcNAc
Procedure, shortened: as §1

[4] = molecular target: Gal(b1-4)GlcNAc(b1-3)Gal(b1-4)GlcNAc(b1-3)Gal(b1-4)GlcNAc(b1-3)Gal(b1-4)GlcNAc(b1-2)Man(a1-3)[Gal(b1-4)GlcNAc(b1-3)Gal(b1-4)GlcNAc(b1-3)Gal(b1-4)GlcNAc(b1-3)Gal(b1-4)GlcNAc(b1-2)Man(a1-6)]Man(b1-4)GlcNAc(b1-4)GlcNAc
Procedure, shortened: as §1

[5] = molecular target: Gal(b1-4)GlcNAc(b1-3)Gal(b1-4)GlcNAc(b1-3)Gal(b1-4)GlcNAc(b1-3)Gal(b1-4)GlcNAc(b1-2)Man(a1-3)[Gal(b1-4)GlcNAc(b1-3)Gal(b1-4)GlcNAc(b1-3)Gal(b1-4)GlcNAc(b1-3)Gal(b1-4)GlcNAc(b1-2)Man(a1-6)]Man(b1-4)GlcNAc(b1-4)[Fuc(a1-6)]GlcNAc
Procedure, shortened: as §1

[6] = molecular target: Gal(b1-4)GlcNAc(b1-3)Gal(b1-4)GlcNAc(b1-3)Gal(b1-4)GlcNAc(b1-3)Gal(b1-4)GlcNAc(b1-2)[Gal(b1-4)GlcNAc(b1-3)Gal(b1-4)GlcNAc(b1-3)Gal(b1-4)GlcNAc(b1-3)Gal(b1-4)GlcNAc(b1-6)]Man(a1-6)[Gal(b1-4)GlcNAc(b1-3)Gal(b1-4)GlcNAc(b1-3)Gal(b1-4)GlcNAc(b1-3)Gal(b1-4)GlcNAc(b1-2)Man(a1-3)]Man(b1-4)GlcNAc(b1-4)[Fuc(a1-6)]GlcNAc
Procedure, shortened: as §1

[7] = molecular target: Gal(b1-4)GlcNAc(b1-3)Gal(b1-4)GlcNAc(b1-3)Gal(b1-4)GlcNAc(b1-3)Gal(b1-4)GlcNAc(b1-3)Gal(b1-4)GlcNAc(b1-2)Man(a1-3)[Gal(b1-4)GlcNAc(b1-3)Gal(b1-4)GlcNAc(b1-3)Gal(b1-4)GlcNAc(b1-3)Gal(b1-4)GlcNAc(b1-3)Gal(b1-4)GlcNAc(b1-2)Man(a1-6)]Man(b1-4)GlcNAc(b1-4)GlcNAc
Procedure, shortened: as §1

[8] = molecular target: Gal(b1-4)GlcNAc(b1-3)Gal(b1-4)GlcNAc(b1-3)Gal(b1-4)GlcNAc(b1-3)Gal(b1-4)GlcNAc(b1-3)Gal(b1-4)GlcNAc(b1-2)Man(a1-3)[Gal(b1-4)GlcNAc(b1-3)Gal(b1-4)GlcNAc(b1-3)Gal(b1-4)GlcNAc(b1-3)Gal(b1-4)GlcNAc(b1-3)Gal(b1-4)GlcNAc(b1-2)Man(a1-6)]Man(b1-4)GlcNAc(b1-4)[Fuc(a1-6)]GlcNAc
Procedure, shortened: as §1

[9] = molecular target: Gal(b1-4)GlcNAc(b1-3)Gal(b1-4)GlcNAc(b1-3)Gal(b1-4)GlcNAc(b1-3)Gal(b1-4)GlcNAc(b1-3)Gal(b1-4)GlcNAc(b1-2)[Gal(b1-4)GlcNAc(b1-3)Gal(b1-4)GlcNAc(b1-3)Gal(b1-4)GlcNAc(b1-3)Gal(b1-4)GlcNAc(b1-3)Gal(b1-4)GlcNAc(b1-6)]Man(a1-6)[Gal(b1-4)GlcNAc(b1-3)Gal(b1-4)GlcNAc(b1-3)Gal(b1-4)GlcNAc(b1-3)Gal(b1-4)GlcNAc(b1-3)Gal(b1-4)GlcNAc(b1-2)Man(a1-3)]Man(b1-4)GlcNAc(b1-4)[Fuc(a1-6)]GlcNAc
Procedure, shortened: as §1

[10] = molecular target: Gal(b1-4)GlcNAc(b1-3)Gal(b1-4)GlcNAc(b1-3)Gal(b1-4)GlcNAc(b1-3)Gal(b1-4)GlcNAc(b1-3)Gal(b1-4)GlcNAc(b1-3)Gal(b1-4)GlcNAc(b1-2)Man(a1-3)[Gal(b1-4)GlcNAc(b1-3)Gal(b1-4)GlcNAc(b1-3)Gal(b1-4)GlcNAc(b1-3)Gal(b1-4)GlcNAc(b1-3)Gal(b1-4)GlcNAc(b1-3)Gal(b1-4)GlcNAc(b1-2)Man(a1-6)]Man(b1-4)GlcNAc(b1-4)GlcNAc
Procedure, shortened: as §1

[11] = molecular target: Gal(b1-4)GlcNAc(b1-3)Gal(b1-4)GlcNAc(b1-3)GalNAc
Procedure, shortened: as §1

[12] = molecular target: Gal(b1-4)GlcNAc(b1-3)Gal(b1-4)GlcNAc(b1-3)[Gal(b1-4)GlcNAc(b1-3)Gal(b1-4)GlcNAc(b1-6)]GalNAc
Procedure, shortened: as §1

[13] = molecular target: Gal(b1-4)GlcNAc(b1-3)Gal(b1-4)GlcNAc(b1-6)[Gal(b1-3)]GalNAc
Procedure, shortened: as §1

[14] = molecular target: Gal(b1-4)GlcNAc(b1-3)Gal(b1-4)[Fuc(a1-3)]GlcNAc(b1-3)Gal(b1-4)[Fuc(a1-3)]GlcNAc
Procedure, shortened: as §1

[15] = molecular target: Gal(b1-4)GlcNAc(b1-3)GalNAc
Procedure, shortened: as §1

[16] = molecular target: Gal(b1-4)GlcNAc(b1-3)[Fuc(a1-3)GlcNAc(b1-6)]Gal(b1-4)Glc
Procedure, shortened: as §1

[17] = molecular target: Gal(b1-4)GlcNAc(b1-3)[Gal(b1-4)GlcNAc(b1-6)]Gal(b1-4)GlcNAc
Procedure, shortened: as §1

[18] = molecular target: Gal(b1-4)GlcNAc(b1-3)[GlcNAc(b1-6)]Gal(b1-4)GlcNAc
Procedure, shortened: as §1

[19] = molecular target: Gal(b1-4)GlcNAc(b1-6)Gal(b1-4)GlcNAc
Procedure, shortened: as §1

B1: PX9961KLbvu-535-38-535 (Bacteroides vulgatus) (protein)
chain: DKAYTDAESYTKGLHKIYSVWALSGQDGSSSSDISGLDAGNTALLRCWWTLQEQPTDEMKNAWNDAWCTEVNYMTWTTNKVEPIEGVYQRCMYIVALVNEFLKNIPNAPESIDKESYIAQARFNRAFAYYVLMDMFALPPFITEKNYSIEPAPLSREDLFNWIEAELNEIKPNLPSPRSEYGVADQAVASALLARMYLNAEIYTGKARYTECINACNEVIKAGYQLADNYADLFKADNGENPDTKKEIIYPIIFDGDKTQSWGMAAIIIGARGAEDKDVLLAHSGVDQGWAGFRATSNLVHLFDFQNDEEPKASEIQDKRGIFYDKGRSIDITSSVSGTFETEGWSVFKFSNLNSNGQPGKNTLWVDTDFPMFRLGDIYLMYAEAVARGGEGSKASAVEYINALRKRAYGDDKHNISENWLEENNFRNLLDERGRELYWEGIRRTDLVRFDLLTSGSYTWDFKGGINTGVGVNKRYNVYPIPVTDLTVNGNLQQNEGY
- glycan array binding signal (z-score) [1]: 0.605
- glycan array binding signal (z-score) [2]: 0.109
- glycan array binding signal (z-score) [3]: 1.11
- glycan array binding signal (z-score) [4]: 1.57
- glycan array binding signal (z-score) [5]: 0.419
- glycan array binding signal (z-score) [6]: 0.197
- glycan array binding signal (z-score) [7]: -0.077
- glycan array binding signal (z-score) [8]: -0.238
- glycan array binding signal (z-score) [9]: 0.274
- glycan array binding signal (z-score) [10]: -0.374
- glycan array binding signal (z-score) [11]: -0.247
- glycan array binding signal (z-score) [12]: 0.396
- glycan array binding signal (z-score) [13]: 0.989
- glycan array binding signal (z-score) [14]: -0.344
- glycan array binding signal (z-score) [15]: -0.452
- glycan array binding signal (z-score) [16]: -0.046
- glycan array binding signal (z-score) [17]: 0.06
- glycan array binding signal (z-score) [18]: -0.118
- glycan array binding signal (z-score) [19]: 0.158
